Experimental data: PubChem BioAssay AID1508597 (Cure First, 2020)

Purpose: 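Genes whose silencing sensitises or protects ovarian cancer cells against rucaparib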 (primary screen)
System: human ovarian carcinoma lines grown from tumours: OCI-P5x (papillary serous) and OCI-C5x (clear cell)
Knock-down reagent: siRNA pool against human genes, 1.25 pmol siRNA per well
Timing: 72 h or 96 h, depending on the cell culture
Conditions: rucaparib 20 µM (about IC30) or vehicle, present until read-out
Rucaparib or vehicle: Vehicle
Cell line: OCI-C5x (clear cell)
Read-out: 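ATP luminescence measured at 72 or 96 h according to the culture, then normalised and expressed as percent viability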
Reading the numbers: viability, normalised: higher = more viable cells remaining
Active means: 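Active when normalised viability falls below 80 percent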
Calls: active = viability under 80%; inactive = viability 80% or more
This is a random part of the about 2,100 reagents, in one setting of the screen. 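Calls flag viability under 80% in either arm, not effects specific to rucaparib; the reference for percent is not stated.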 A number with no mark means an inactive call. Some reagents were tested in more than one well and are listed for each. The record does not give: the 100% reference.

MLLT10, technical replicate 1
- viability, normalised (%): 40.3 (active)

MLLT10, technical replicate 2
- viability, normalised (%): 51.7 (active)

MLLT10, technical replicate 3
- viability, normalised (%): 67.4 (active)

LIG3, technical replicate 1
- viability, normalised (%): 56.3 (active)

LIG3, technical replicate 2
- viability, normalised (%): 57.9 (active)

LIG3, technical replicate 3
- viability, normalised (%): 31.3 (active)

STK35, technical replicate 1
- viability, normalised (%): 46.9 (active)

STK35, technical replicate 2
- viability, normalised (%): 57.7 (active)

STK35, technical replicate 3
- viability, normalised (%): 42.9 (active)

PARP3, technical replicate 1
- viability, normalised (%): 33.2 (active)

PARP3, technical replicate 1
- viability, normalised (%): 65 (active)

PARP3, technical replicate 2
- viability, normalised (%): 37.8 (active)

PARP3, technical replicate 2
- viability, normalised (%): 30.8 (active)

PARP3, technical replicate 3
- viability, normalised (%): 49.1 (active)

PARP3, technical replicate 3
- viability, normalised (%): 43.4 (active)

MARK4, technical replicate 1
- viability, normalised (%): 51.1 (active)

MARK4, technical replicate 2
- viability, normalised (%): 56.1 (active)

MARK4, technical replicate 3
- viability, normalised (%): 46.4 (active)

STK33, technical replicate 1
- viability, normalised (%): 53.8 (active)

STK33, technical replicate 2
- viability, normalised (%): 67.4 (active)

STK33, technical replicate 3
- viability, normalised (%): 63.1 (active)

MGMT, technical replicate 1
- viability, normalised (%): 57.6 (active)

MGMT, technical replicate 1
- viability, normalised (%): 44.3 (active)

MGMT, technical replicate 2
- viability, normalised (%): 72 (active)

MGMT, technical replicate 2
- viability, normalised (%): 42.1 (active)

MGMT, technical replicate 3
- viability, normalised (%): 60.1 (active)

MGMT, technical replicate 3
- viability, normalised (%): 42.3 (active)

ALDOA, technical replicate 1
- viability, normalised (%): 32.7 (active)

ALDOA, technical replicate 2
- viability, normalised (%): 32.6 (active)

ALDOA, technical replicate 3
- viability, normalised (%): 27 (active)

WNT4, technical replicate 1
- viability, normalised (%): 48.2 (active)

WNT4, technical replicate 2
- viability, normalised (%): 60 (active)

WNT4, technical replicate 3
- viability, normalised (%): 70.6 (active)

3 of these entries, reformatted.
{"target gene": "STK35", "technical replicate": "1", "viability, normalised (%)": "46.9 (active)"}
{"target gene": "STK35", "technical replicate": "2", "viability, normalised (%)": "57.7 (active)"}
{"target gene": "STK35", "technical replicate": "3", "viability, normalised (%)": "42.9 (active)"}
